# Measurements from the supplement of paper PMC10849652.
# The chains behind the UniProt entries cited, without tags or fusion partners. Where a name states a change or a piece, a line headed by the entry shows the natural chain unless it says otherwise.
# UniProt Q9UBW7: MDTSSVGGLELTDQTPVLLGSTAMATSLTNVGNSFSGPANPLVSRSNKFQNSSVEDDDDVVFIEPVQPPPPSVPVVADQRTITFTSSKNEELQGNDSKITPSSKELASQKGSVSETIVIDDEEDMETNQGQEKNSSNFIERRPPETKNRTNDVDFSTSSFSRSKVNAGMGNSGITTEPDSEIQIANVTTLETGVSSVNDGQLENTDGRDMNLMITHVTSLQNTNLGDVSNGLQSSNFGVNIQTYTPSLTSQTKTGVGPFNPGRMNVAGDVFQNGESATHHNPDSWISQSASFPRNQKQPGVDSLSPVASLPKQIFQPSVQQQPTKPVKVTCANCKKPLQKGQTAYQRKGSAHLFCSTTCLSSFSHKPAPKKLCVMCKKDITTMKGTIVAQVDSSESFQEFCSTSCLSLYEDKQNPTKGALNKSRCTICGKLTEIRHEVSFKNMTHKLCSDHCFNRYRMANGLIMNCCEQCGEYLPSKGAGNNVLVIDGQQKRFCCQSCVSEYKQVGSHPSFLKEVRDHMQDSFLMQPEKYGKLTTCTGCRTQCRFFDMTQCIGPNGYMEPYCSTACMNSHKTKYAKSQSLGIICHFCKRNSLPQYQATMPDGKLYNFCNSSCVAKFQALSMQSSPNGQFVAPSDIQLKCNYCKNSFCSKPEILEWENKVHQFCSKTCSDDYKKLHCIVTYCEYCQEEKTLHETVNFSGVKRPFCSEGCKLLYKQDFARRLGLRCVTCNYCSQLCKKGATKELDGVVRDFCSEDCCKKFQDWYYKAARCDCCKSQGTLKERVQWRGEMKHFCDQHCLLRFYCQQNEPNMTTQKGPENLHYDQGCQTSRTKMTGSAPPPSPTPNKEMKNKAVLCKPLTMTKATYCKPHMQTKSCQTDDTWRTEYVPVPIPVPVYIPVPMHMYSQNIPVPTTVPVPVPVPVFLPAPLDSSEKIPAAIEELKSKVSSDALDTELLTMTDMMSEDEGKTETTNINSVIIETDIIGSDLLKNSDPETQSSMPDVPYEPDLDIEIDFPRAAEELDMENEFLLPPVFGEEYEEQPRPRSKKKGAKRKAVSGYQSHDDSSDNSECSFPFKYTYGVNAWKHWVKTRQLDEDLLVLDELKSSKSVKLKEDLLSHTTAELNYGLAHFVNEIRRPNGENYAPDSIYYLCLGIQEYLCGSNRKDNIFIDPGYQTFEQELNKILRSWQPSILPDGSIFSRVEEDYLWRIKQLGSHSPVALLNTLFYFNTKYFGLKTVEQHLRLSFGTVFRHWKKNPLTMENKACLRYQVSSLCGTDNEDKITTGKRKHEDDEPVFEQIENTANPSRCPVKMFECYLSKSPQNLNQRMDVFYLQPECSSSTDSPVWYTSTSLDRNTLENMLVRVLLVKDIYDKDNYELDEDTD
# UniProt Q8NHG8: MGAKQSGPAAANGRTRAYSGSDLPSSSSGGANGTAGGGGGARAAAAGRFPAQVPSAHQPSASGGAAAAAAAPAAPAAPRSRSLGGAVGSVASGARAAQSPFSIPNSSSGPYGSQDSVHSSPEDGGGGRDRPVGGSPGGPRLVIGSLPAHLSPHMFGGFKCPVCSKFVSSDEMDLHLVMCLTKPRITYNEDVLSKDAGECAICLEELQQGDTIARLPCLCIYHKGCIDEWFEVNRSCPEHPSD
# UniProt Q8TCN5: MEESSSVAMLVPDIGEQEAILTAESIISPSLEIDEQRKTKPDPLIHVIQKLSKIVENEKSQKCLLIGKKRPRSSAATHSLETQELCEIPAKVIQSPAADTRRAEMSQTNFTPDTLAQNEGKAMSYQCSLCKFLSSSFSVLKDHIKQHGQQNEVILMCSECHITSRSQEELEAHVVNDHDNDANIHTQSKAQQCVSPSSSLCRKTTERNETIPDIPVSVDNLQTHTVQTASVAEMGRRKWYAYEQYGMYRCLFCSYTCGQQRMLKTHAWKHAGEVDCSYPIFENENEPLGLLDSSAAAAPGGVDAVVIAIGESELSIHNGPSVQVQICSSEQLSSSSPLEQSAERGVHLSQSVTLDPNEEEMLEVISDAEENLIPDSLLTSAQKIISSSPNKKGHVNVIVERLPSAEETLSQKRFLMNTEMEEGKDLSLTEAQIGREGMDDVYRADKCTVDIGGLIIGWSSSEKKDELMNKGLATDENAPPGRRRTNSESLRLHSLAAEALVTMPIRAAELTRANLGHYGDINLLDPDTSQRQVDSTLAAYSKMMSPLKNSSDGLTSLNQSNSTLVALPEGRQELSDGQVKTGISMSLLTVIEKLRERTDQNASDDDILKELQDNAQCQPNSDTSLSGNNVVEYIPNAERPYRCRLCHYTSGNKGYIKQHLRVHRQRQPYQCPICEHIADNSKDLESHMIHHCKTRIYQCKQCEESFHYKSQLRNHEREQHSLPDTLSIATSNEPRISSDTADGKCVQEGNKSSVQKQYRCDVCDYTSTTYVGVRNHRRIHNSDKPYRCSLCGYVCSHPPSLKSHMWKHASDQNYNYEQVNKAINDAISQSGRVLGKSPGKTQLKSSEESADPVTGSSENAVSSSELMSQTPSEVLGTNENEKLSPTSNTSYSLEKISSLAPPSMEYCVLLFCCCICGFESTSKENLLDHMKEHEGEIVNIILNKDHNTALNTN
# UniProt P59923: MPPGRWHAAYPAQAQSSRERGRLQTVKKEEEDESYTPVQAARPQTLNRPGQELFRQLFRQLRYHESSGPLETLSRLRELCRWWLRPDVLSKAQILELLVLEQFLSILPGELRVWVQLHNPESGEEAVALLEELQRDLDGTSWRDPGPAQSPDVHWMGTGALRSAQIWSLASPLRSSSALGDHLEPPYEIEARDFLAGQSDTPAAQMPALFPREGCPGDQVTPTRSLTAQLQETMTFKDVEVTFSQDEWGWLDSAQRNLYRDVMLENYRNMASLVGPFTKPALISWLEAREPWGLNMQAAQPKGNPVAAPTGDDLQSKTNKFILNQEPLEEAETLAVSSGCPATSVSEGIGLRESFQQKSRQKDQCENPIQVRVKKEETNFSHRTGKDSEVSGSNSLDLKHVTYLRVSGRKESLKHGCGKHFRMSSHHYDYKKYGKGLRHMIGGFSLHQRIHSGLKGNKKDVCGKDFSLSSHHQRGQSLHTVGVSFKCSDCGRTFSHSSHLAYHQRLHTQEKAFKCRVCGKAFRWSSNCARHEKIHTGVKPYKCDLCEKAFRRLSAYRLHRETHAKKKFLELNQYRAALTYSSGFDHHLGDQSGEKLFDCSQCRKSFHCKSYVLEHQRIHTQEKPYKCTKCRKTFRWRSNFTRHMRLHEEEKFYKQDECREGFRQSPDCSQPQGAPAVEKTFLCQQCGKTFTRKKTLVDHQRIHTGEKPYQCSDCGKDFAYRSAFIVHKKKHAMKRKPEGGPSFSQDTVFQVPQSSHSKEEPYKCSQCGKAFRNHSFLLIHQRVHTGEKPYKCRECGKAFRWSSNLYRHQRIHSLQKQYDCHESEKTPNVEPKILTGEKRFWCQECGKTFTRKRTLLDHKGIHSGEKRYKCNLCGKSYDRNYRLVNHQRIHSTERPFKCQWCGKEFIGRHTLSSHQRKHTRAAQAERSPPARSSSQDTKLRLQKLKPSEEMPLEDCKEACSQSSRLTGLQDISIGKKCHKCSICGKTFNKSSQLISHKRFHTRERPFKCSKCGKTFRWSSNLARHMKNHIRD
# UniProt Q6ZMS4: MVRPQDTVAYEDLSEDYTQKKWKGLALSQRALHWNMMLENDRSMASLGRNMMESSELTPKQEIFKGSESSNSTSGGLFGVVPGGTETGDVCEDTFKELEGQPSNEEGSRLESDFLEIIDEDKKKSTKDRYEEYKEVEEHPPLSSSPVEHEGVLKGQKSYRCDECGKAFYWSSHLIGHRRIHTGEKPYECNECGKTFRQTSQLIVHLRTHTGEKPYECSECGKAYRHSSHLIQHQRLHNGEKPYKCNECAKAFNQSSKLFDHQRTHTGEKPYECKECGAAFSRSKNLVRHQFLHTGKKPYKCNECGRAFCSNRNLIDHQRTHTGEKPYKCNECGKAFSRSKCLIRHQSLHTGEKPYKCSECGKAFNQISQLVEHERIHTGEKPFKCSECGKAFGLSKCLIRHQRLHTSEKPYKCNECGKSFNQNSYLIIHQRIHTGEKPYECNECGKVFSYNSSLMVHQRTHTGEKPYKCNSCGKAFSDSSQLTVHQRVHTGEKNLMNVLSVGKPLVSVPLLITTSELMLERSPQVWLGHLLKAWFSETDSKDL
# UniProt K7EIQ3: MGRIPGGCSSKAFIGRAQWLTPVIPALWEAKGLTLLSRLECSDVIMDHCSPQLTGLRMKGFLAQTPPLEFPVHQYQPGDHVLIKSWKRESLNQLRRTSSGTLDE
# UniProt Q6N043: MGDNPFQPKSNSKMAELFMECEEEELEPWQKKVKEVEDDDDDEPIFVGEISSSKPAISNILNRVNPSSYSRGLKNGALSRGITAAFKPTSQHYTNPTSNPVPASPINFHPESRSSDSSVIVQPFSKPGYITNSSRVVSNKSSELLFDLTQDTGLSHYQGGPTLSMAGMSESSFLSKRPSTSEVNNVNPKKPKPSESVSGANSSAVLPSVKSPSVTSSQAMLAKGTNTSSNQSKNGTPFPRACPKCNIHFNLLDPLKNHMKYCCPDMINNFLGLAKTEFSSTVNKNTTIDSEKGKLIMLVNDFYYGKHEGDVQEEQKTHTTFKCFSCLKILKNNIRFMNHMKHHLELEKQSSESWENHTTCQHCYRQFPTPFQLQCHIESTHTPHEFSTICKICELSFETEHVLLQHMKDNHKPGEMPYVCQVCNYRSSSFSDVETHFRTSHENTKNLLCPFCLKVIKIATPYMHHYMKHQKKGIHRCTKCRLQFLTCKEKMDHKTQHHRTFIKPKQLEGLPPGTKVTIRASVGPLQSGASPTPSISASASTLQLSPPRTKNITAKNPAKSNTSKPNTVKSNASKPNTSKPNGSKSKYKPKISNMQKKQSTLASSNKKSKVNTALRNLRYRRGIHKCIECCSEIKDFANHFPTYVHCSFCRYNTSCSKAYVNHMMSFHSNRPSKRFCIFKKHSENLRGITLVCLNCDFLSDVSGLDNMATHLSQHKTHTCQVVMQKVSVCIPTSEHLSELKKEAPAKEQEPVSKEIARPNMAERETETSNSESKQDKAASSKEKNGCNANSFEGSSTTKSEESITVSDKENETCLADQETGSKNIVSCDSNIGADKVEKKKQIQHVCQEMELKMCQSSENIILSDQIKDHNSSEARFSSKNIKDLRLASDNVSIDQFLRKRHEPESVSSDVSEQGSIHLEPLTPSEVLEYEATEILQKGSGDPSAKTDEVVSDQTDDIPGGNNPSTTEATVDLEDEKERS
# UniProt Q9H582: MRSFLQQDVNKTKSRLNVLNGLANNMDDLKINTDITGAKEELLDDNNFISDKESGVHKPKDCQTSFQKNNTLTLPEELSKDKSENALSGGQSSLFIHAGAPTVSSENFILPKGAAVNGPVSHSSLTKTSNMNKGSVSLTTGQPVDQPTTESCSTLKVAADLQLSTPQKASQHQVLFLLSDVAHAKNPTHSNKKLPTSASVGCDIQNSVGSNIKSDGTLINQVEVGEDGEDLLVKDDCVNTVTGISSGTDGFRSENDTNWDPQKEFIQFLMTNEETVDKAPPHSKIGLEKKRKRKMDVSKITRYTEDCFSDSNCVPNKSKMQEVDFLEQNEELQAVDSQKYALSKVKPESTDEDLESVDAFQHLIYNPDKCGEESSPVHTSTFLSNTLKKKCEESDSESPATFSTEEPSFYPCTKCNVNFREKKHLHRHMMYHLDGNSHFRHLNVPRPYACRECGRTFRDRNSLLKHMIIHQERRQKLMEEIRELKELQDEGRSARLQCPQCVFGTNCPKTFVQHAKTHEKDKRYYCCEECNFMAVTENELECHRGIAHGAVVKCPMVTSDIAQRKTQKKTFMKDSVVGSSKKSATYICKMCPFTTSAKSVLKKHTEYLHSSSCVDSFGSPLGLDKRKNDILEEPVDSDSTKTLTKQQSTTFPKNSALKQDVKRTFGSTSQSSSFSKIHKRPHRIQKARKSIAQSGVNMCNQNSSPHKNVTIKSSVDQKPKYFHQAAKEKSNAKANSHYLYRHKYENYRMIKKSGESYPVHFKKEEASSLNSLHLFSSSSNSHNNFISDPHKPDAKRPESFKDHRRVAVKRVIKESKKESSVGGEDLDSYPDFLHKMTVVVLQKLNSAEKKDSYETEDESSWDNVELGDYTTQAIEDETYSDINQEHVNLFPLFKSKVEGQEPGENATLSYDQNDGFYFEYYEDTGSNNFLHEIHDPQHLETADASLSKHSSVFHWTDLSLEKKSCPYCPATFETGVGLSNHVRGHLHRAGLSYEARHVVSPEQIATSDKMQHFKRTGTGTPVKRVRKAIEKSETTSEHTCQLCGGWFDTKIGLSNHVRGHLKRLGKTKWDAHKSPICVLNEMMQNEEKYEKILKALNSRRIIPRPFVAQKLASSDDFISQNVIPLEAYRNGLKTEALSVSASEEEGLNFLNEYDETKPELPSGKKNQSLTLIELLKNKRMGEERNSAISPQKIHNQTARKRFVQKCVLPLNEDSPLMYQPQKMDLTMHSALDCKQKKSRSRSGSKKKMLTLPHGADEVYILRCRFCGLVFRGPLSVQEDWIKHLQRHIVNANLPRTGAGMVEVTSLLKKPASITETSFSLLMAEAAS
# Some of the results follow.
# Tests used:
# Assay in all cases: log2 fold change, soluble protein after heating vs DMSO (PISA); higher = thermal stabilisation; K562 lysate, 10 uM; active = over 0.2 and 3.5 SD of the protein, either way, in both replicates (recomputed)
# lapatinib = compound: CS(=O)(=O)CCNCc1ccc(-c2ccc3ncnc(Nc4ccc(OCc5cccc(F)c5)c(Cl)c4)c3c2)o1 [lapatinib]
# Procedure, shortened: (§1)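 A 30 min treatment with 10 μM compound was applied to crude K562 extract at 1 mg/mL protein in PBS pH 7.4 with 1 mM MgCl2. Heating for 3 min spanned 48°C-58°C, after which aliquots were pooled, adjusted to 0.5% NP-40 at 4°C and spun at 21,000xg for 90 min. TMTpro 16plex LC-MS/MS of the supernatant, with channel sums equalised, gave values recorded as log-two fold change in thermal stability against solvent controls, from duplicates.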
# pictilisib = compound: CS(=O)(=O)N1CCN(Cc2cc3nc(-c4cccc5[nH]ncc45)nc(N4CCOCC4)c3s2)CC1 [pictilisib]
# Procedure, shortened: as §1
# crizotinib = compound: C[C@@H](Oc1cc(-c2cnn(C3CCNCC3)c2)cnc1N)c1c(Cl)ccc(F)c1Cl [crizotinib]
# Procedure, shortened: as §1
# [1] = compound: C[C@H](C1=CC=C(C=C1)C(=O)NC2=C3C=CNC3=NC=C2)N
# Procedure, shortened: as §1
# duvelisib = compound: C[C@H](Nc1ncnc2nc[nH]c12)c1cc2cccc(Cl)c2c(=O)n1-c1ccccc1 [duvelisib]
# Procedure, shortened: as §1
# gandotinib = compound: Cc1cc(Nc2cc(CN3CCOCC3)c3nc(C)c(Cc4ccc(Cl)cc4F)n3n2)n[nH]1 [gandotinib]
# Procedure, shortened: as §1
# tozasertib = compound: Cc1cc(Nc2cc(N3CCN(C)CC3)nc(Sc3ccc(NC(=O)C4CC4)cc3)n2)n[nH]1 [tozasertib]
# Procedure, shortened: as §1
# doramapimod = compound: Cc1ccc(-n2nc(C(C)(C)C)cc2NC(=O)Nc2ccc(OCCN3CCOCC3)c3ccccc23)cc1 [doramapimod]
# Procedure, shortened: as §1
# bafetinib = compound: Cc1ccc(NC(=O)c2ccc(CN3CC[C@H](N(C)C)C3)c(C(F)(F)F)c2)cc1Nc1nccc(-c2cncnc2)n1 [bafetinib]
# Procedure, shortened: as §1
# [2] = compound: Cc1cccc(CC(=O)N2CCc3c2ccc(-c2cn(C)c4ncnc(N)c24)c3F)n1
# Procedure, shortened: as §1
Target,log2 fold change (lapatinib),log2 fold change (pictilisib),log2 fold change (crizotinib),log2 fold change [1],log2 fold change (duvelisib),log2 fold change (gandotinib),log2 fold change (tozasertib),log2 fold change (doramapimod),log2 fold change (bafetinib),log2 fold change [2]
ZMYM2 (UniProt Q9UBW7),inactive: 0.028,inactive: -0.147,inactive: -0.079,inactive: 0.098,inactive: 0.028,inactive: -0.329,inactive: 0.046,inactive: 0.041,inactive: -0.024,inactive: -0.084
ZMYM1 (UniProt Q5SVZ6),inactive: 0.101,inactive: -0.037,inactive: -0.008,active: -0.25,inactive: -0.04,inactive: 0.226,inactive: -0.021,inactive: 0,inactive: -0.097,active: 0.284
hCG_1984214 (UniProt I3L0E3),inactive: -0.04,inactive: -0.01,inactive: -0.033,inactive: -0.084,inactive: 0.045,inactive: 0.041,inactive: -0.011,inactive: 0.007,inactive: -0.113,inactive: 0.009
ZYG11A (UniProt Q6WRX3),inactive: -0.301,inactive: 0.031,–,inactive: -0.306,–,inactive: 0.192,–,–,inactive: -0.378,inactive: 0.323
ZNF143 (UniProt P52747),inactive: 0.065,inactive: 0.004,inactive: 0.028,inactive: -0.048,inactive: 0.005,inactive: 0.029,inactive: -0.027,inactive: -0.012,inactive: 0.01,inactive: 0.023
ZWILCH (UniProt Q9H900),inactive: -0.032,inactive: -0.002,inactive: -0.056,inactive: -0.038,inactive: 0.001,inactive: -0.083,inactive: 0.009,inactive: 0.019,inactive: -0.009,inactive: 0.017
ZNF845 (UniProt Q96IR2),inactive: 0.012,inactive: -0.013,inactive: 0.018,inactive: -0.069,inactive: -0.023,inactive: 0.015,–,inactive: 0.16,inactive: -0.031,inactive: 0.017
ZHX3 (UniProt Q9H4I2),inactive: -0.041,inactive: -0.111,–,inactive: 0.027,inactive: 0.086,inactive: 0.158,–,–,inactive: 0,inactive: 0.126
ZNF598 isoform 3 (UniProt Q86UK7),inactive: 0.027,inactive: 0.005,inactive: 0.006,inactive: -0.01,inactive: -0.01,inactive: 0.023,inactive: 0.048,inactive: 0.024,inactive: -0.012,inactive: 0.015
ZNF669 (UniProt Q96BR6),inactive: -0.073,inactive: -0.083,inactive: 0.189,inactive: -0.101,inactive: 0.111,inactive: -0.161,–,inactive: 0.186,inactive: -0.014,inactive: 0.066
ZNF428 (UniProt M0QXZ5),inactive: 0,inactive: -0.113,inactive: 0.006,inactive: 0.083,inactive: 0.114,inactive: 0.025,inactive: 0.002,inactive: 0.021,inactive: -0.015,inactive: -0.08
ZNRF2 (UniProt Q8NHG8),inactive: 0.055,inactive: 0.155,inactive: 0.028,inactive: 0.054,–,inactive: 0,inactive: 0.06,inactive: 0.168,inactive: 0.014,inactive: -0.15
ZNF100 (UniProt Q8IYN0),–,inactive: 0.015,inactive: -0.255,–,–,–,–,inactive: 0.009,inactive: -0.031,–
ZNF93 (UniProt P35789),inactive: -0.005,–,inactive: -0.005,–,inactive: -0.082,–,inactive: 0.072,inactive: 0.015,–,–
ZNF324 (UniProt O75467),inactive: 0.382,–,inactive: -0.078,inactive: -0.097,–,inactive: -0.091,–,inactive: 0.007,–,inactive: 0.163
ZNF239 (UniProt Q16600),–,inactive: 0.091,inactive: 0.04,inactive: 0.126,–,inactive: -0.167,inactive: 0.074,inactive: -0.063,inactive: -0.109,inactive: -0.124
ZNF460 (UniProt Q14592),–,inactive: -0.124,–,–,–,–,inactive: 0.079,–,inactive: -0.13,–
ZZZ3 (UniProt Q8IYH5),–,inactive: -0.161,inactive: 0.061,inactive: 0.003,inactive: -0.073,inactive: -0.005,inactive: 0.001,inactive: -0.102,inactive: 0.153,inactive: 0.055
ZGRF1 (UniProt Q86YA3),–,–,inactive: -0.011,inactive: -0.159,inactive: 0.015,inactive: 0.314,inactive: 0.007,inactive: -0.002,–,inactive: -0.188
ZNF148 (UniProt Q9UQR1),–,inactive: -0.048,inactive: 0.079,inactive: 0.122,inactive: 0.028,inactive: -0.022,inactive: -0.036,inactive: 0.119,inactive: 0.099,inactive: 0.034
ZNF618 (UniProt B1ALC2),inactive: -0.013,–,inactive: -0.055,inactive: -0.06,inactive: -0.01,inactive: -0.017,inactive: -0.055,inactive: 0.076,–,inactive: 0.13
ZNF800 (UniProt Q2TB10),inactive: -0.017,–,–,–,inactive: -0.019,–,–,–,–,–
ZNF507 (UniProt Q8TCN5),–,inactive: -0.03,inactive: 0.038,inactive: 0.006,inactive: 0.016,inactive: -0.023,inactive: 0.044,inactive: 0.018,inactive: -0.062,inactive: 0.011

# Retrieved one by one from the entries so far:
Target,log2 fold change (lapatinib),log2 fold change (pictilisib),log2 fold change (crizotinib),log2 fold change [1],log2 fold change (duvelisib),log2 fold change (gandotinib),log2 fold change (tozasertib),log2 fold change (doramapimod),log2 fold change (bafetinib),log2 fold change [2]
ZNF598 isoform 3 (UniProt Q86UK7),inactive: 0.027,inactive: 0.005,inactive: 0.006,inactive: -0.01,inactive: -0.01,inactive: 0.023,inactive: 0.048,inactive: 0.024,inactive: -0.012,inactive: 0.015
ZNRF2 (UniProt Q8NHG8),inactive: 0.055,inactive: 0.155,inactive: 0.028,inactive: 0.054,–,inactive: 0,inactive: 0.06,inactive: 0.168,inactive: 0.014,inactive: -0.15

# Next records.

Target,log2 fold change (lapatinib),log2 fold change (pictilisib),log2 fold change (crizotinib),log2 fold change [1],log2 fold change (duvelisib),log2 fold change (gandotinib),log2 fold change (tozasertib),log2 fold change (doramapimod),log2 fold change (bafetinib),log2 fold change [2]
ZSWIM8 isoform 4 (UniProt A7E2V4),–,inactive: -0.253,inactive: 0.027,inactive: -0.027,inactive: -0.145,inactive: -0.153,inactive: 0.169,inactive: -0.084,inactive: -0.257,inactive: 0.205
ZNF771 (UniProt Q7L3S4),inactive: 0.03,inactive: -0.083,–,inactive: 0.057,–,inactive: -0.051,–,–,inactive: -0.033,inactive: -0.01
ZNF225 (UniProt Q9UK10),–,inactive: -0.066,–,–,inactive: 0.011,–,inactive: -0.18,–,inactive: -0.269,–
ZNF445 (UniProt P59923),–,inactive: -0.091,–,–,inactive: 0.037,–,–,–,inactive: -0.188,–
ZNF668 isoform 2 (UniProt Q96K58),inactive: 0.068,–,inactive: 0.111,–,–,–,–,inactive: -0.047,–,–
ZNF852 (UniProt Q6ZMS4),inactive: 0.142,–,inactive: 0.132,inactive: 0.056,–,inactive: 0.07,–,inactive: -0.066,–,inactive: 0.136
ZNF417 (UniProt Q8TAU3),–,inactive: 0.04,–,–,–,–,–,–,inactive: -0.17,–
ZNF687 (UniProt Q8N1G0),inactive: -0.115,–,inactive: -0.097,–,inactive: -0.004,–,inactive: 0.038,inactive: 0.08,–,–
ZNF101 (UniProt Q8IZC7),inactive: 0.054,–,inactive: -0.085,–,inactive: 0.075,–,–,inactive: -0.127,–,–
ZNF384 (UniProt Q8TF68),inactive: -0.151,–,inactive: -0.07,–,inactive: -0.013,–,inactive: -0.156,inactive: 0.098,–,–
ZNF785 (UniProt A8K8V0),inactive: -0.025,–,–,–,inactive: -0.021,–,–,–,–,–
ZKSCAN4 (UniProt Q969J2),inactive: 0.109,–,inactive: -0.047,–,–,–,–,inactive: 0.075,–,–
ZNF8 (UniProt P17098),–,inactive: 0.038,inactive: -0.202,inactive: -0.064,inactive: 0.112,inactive: -0.125,–,inactive: 0.199,inactive: 0.151,inactive: 0.009
ZNF48 (UniProt Q96MX3),inactive: -0.094,–,–,inactive: -0.191,–,inactive: 0.129,inactive: 0.005,–,–,inactive: -0.101
ZNF561-AS1 (UniProt K7EIQ3),–,inactive: -0.006,–,–,–,–,–,–,inactive: -0.381,–
ZKSCAN8 (UniProt Q15776),inactive: 0.08,–,inactive: -0.151,–,inactive: 0.068,–,inactive: -0.014,inactive: 0.082,–,–
ZNF385A (UniProt Q96PM9),–,inactive: 0.067,inactive: 0.033,–,–,–,–,inactive: 0.096,inactive: -0.044,–
ZNF280D (UniProt Q6N043),inactive: -0.249,–,–,inactive: 0.007,–,inactive: -0.009,–,–,–,inactive: -0.028
ZNF525 (UniProt J3KR51),–,inactive: -0.041,–,–,–,–,–,–,inactive: -0.214,–
ZNF280B (UniProt Q86YH2),–,inactive: 0.111,inactive: 0.013,inactive: -0.079,–,inactive: 0.066,–,inactive: 0.06,inactive: -0.073,inactive: -0.181
ZNF444 (UniProt Q8N0Y2),–,inactive: -0.575,inactive: -0.047,inactive: -0.115,inactive: 0,inactive: 0.249,–,inactive: -0.012,inactive: -0.676,inactive: 0.182
ZNHIT1 (UniProt O43257),–,inactive: 0.002,–,–,–,–,inactive: -0.15,–,inactive: -0.073,–
ZNF644 (UniProt Q9H582),–,inactive: -0.133,inactive: -0.026,inactive: 0.04,inactive: -0.069,inactive: -0.015,inactive: 0.015,inactive: 0.037,inactive: -0.165,inactive: 0.086
